# Earlier results as cited in patent US11866789B2, “Targeted therapies for cancer” (THE TRANSLATIONAL GENOMICS RESEARCH INSTITUTE, priority 2015, dated 2024).
# At least one structure is not confirmed: it was looked up by name or label, or the drawing left a doubt.
# Test system: Cell line models expressing NRG1 fusions
# Conditions: See Reference 29
smiles,measurement,value
CN(C)C/C=C/C(=O)Nc1cc2c(Nc3ccc(F)c(Cl)c3)ncnc2cc1O[C@H]1CCOC1 [Afatinib],sensitivity of NRG1 fusion cell line models,increased sensitivity
